The results in this text go back to paper PMC11721587, “Morphogen-induced kinase condensates transduce Hh signal by allosterically activating Gli” (Science Advances, 2025).

The target in the experiment is Sufu (Drosophila (endogenous in Cl8)). Briefly: co-IP; sequential IP of endogenous proteins from cytoplasmic and nuclear fractions of Cl8 cells with Hh-conditioned or control medium, 5 nM LMB; first IP anti-Ci (2A1), eluted with GST-Ci 700-850; second IP anti-Sufu (25H3).

Results are given in words; binding and its absence hold for the method and conditions named. Binding seen in cells or lysates may run through a third protein. A result given as binding can be weak or reduced; the word gives no strength. Sequences can lack the tags named with a protein.

B1: fused (Fu) (enzyme, Drosophila (endogenous in Cl8), UniProt P23647 1-805, looked up)
chain: MNRYAVSSLVGQGSFGCVYKATRKDDSKVVAIKVISKRGRATKELKNLRRECDIQARLKHPHVIEMIESFESKTDLFVVTEFALMDLHRYLSYNGAMGEEPARRVTGHLVSALYYLHSNRILHRDLKPQNVLLDKNMHAKLCDFGLARNMTLGTHVLTSIKGTPLYMAPELLAEQPYDHHADMWSLGCIAYESMAGQPPFCASSILHLVKMIKHEDVKWPSTLTSECRSFLQGLLEKDPGLRISWTQLLCHPFVEGRIFIAETQAEAAKESPFTNPEAKVKSSKQSDPEVGDLDEALAALDFGESRQENLTTSRDSINAIAPSDVEHLETDVEDNMQRVVVPFADLSYRDLSGVRAMPMVHQPVINSHTCFVSGNSNMILNHMNDNFDFQASLRGGGVAAKPIVAPTVRQSRSKDLEKRKLSQNLDNFSVRLGHSVDHEAQRKATEIATQEKHNQENKPPAEAISYANSQPPQQQPQQLKHSMHSTNEEKLSSDNTPPCLLPGWDSCDESQSPPIENDEWLAFLNRSVQELLDGELDSLKQHNLVSIIVAPLRNSKAIPRVLKSVAQLLSLPFVLVDPVLIVDLELIRNVYVDVKLVPNLMYACKLLLSHKQLSDSAASAPLTTGSLSRTLRSIPELTVEELETACSLYELVCHLVHLQQQFLTQFCDAVAILAASDLFLNFLTHDFRQSDSDAASVRLAGCMLALMGCVLRELPENAELVERIVFNPRLNFVSLLQSRHHLLRQRSCQLLRLLARFSLRGVQRIWNGELRFALQQLSEHHSYPALRGEAAQTLDEISHFTFFVT
notes: Fu Ser/Thr kinase, Drosophila, endogenous in Cl8 cells; After Hh it is phosphorylated (T158/S159, S482) and SUMO-conjugated; the SDS-resistant dimer is called mature Fu; also called endogenous Fu; mature Fu; source: endogenous, Cl8 cells (fractions, lysates)
Turning to B1, the binding entry was “binds”.
